These are yes or no findings as the source states them, for the method shown. Some results given as binding are weak or reduced against the parent protein; the word gives no strength.

The chains behind the UniProt entries cited, without tags or fusion partners. Where a name states a change or a piece, a line headed by the entry shows the natural chain unless it says otherwise.
UniProt P21860: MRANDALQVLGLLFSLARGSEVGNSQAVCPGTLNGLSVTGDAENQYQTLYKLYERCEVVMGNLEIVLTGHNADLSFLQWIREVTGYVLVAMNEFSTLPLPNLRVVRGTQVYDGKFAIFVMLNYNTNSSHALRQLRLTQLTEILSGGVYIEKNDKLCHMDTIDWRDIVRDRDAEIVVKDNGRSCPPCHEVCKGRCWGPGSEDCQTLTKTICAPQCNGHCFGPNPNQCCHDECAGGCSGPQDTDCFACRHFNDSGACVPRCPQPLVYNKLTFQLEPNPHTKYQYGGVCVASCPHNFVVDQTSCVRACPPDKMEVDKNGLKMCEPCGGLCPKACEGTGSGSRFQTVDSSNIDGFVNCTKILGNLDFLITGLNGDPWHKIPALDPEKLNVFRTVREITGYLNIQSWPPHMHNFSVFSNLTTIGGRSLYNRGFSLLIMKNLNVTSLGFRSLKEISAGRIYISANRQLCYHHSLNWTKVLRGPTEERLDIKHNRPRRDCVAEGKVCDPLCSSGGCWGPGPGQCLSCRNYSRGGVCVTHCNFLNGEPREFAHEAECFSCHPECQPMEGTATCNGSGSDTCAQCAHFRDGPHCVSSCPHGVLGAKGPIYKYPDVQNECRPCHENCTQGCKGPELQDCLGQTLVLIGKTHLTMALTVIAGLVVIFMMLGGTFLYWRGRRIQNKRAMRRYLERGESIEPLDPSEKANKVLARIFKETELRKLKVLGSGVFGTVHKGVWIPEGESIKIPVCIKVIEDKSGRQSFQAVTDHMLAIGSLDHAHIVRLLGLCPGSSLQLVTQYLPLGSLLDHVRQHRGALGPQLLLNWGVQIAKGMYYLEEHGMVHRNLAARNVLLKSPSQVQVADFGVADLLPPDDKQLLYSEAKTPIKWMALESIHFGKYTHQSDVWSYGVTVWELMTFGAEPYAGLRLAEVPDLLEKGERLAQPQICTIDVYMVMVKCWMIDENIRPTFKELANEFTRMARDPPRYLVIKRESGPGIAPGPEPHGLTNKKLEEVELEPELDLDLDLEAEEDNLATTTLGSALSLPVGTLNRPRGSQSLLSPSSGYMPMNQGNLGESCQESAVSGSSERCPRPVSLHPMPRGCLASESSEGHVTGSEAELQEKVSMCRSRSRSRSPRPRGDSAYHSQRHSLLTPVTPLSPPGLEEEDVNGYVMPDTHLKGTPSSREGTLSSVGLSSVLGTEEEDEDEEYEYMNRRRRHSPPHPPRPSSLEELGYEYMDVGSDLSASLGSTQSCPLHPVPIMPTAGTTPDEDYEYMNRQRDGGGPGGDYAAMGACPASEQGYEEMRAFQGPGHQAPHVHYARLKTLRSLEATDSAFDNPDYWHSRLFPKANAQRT

This assay addresses HER3-Fc fusion protein (Fc fusion protein of the extracellular domain of human HER3, limits not stated) (human) (UniProt P21860). Briefly: ELISA, immobilized human HER3 extracellular region fused to human Fc, scFv detected with anti-His-tag antibody.

B1: scFv 3-43 (scFv)
scFv: QVQLQQSGPGLVKPSQTLSLTCAISGDSVSSNRAAWNWIRQSPSRGLEWLGRTYYRSKWYNDYAQSLKSRITINPDTPKNQFSLQLNSVTPEDTAVYYCARDGQLGLDALDIWGQGTMVTVSSGGGGSGGGGSGGGGSQAGLTQPPAVSVAPGQTASITCGRDNIGSRSVHWYQQKPGQAPVLVVYDDSDRPAGIPERFSGSNYENTATLTISRVEAGDEADYYCQVWGITSDHVVFGGGTKLTVLG
For the molecule B1, the binding entry is listed as “binds”.

Values taken from patent publication US20190194350A1.
